The target of experiment [1] is recombinant His-Tau. Kind of experiment: incubation in PBS, reducing SDS-PAGE.
Experiment [2] deals with recombinant His-Tau. Kind of experiment: incubation in PBS, reducing SDS-PAGE and Western blot. For orientation: In western blotting, separated proteins are transferred to a membrane and probed.

Results are given in words; binding and its absence hold for the method and conditions named. A result given as binding can be weak or reduced; the word gives no strength.

B1: Zfra1-31 (full-length zinc finger-like protein that regulates apoptosis, synthetic peptide) (peptide)
peptide: MSSRRSSSCKYCEQDFRAHTQKNAATPFLAN
notes: also called Zfra peptide; full-length Zfra
For the molecule B1, the binding result in experiment [1] and in experiment [2] was “binds” throughout.

The record behind these values is patent publication US20190161525A1 (NATIONAL CHENG KUNG UNIVERSITY, published 2019).
